The list shows a part of the results, in another mix than the full data. At the low end of the ranking, values are background and their order means little.
target: T1, ELF3 (UniProt P78545); experiment: DAPPL (digital affinity profiling via proximity ligation, sequencing); settings: 10 mM Tris-HCl pH 7.5, 50 mM NaCl, 1 mM DTT, 4% glycerol, room temperature, 30 min; GST-TFs on glutathione beads, 16-mer random dsDNA library, 0.1% …; high values mean tight binding; double strand, one strand shown; scale: fold enrichment (6-mer frequency, TF over GST control)
T1 sequence: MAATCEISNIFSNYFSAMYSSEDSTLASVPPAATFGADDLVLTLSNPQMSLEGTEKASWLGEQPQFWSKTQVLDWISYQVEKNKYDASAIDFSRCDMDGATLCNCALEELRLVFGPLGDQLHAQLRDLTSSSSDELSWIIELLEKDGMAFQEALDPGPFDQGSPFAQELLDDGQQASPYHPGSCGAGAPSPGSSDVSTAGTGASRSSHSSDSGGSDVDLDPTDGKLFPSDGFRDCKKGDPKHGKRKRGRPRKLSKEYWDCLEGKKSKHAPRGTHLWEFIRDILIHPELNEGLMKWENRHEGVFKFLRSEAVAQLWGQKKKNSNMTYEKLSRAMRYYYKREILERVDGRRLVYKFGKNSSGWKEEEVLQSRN

Q: GCGCTA was tested. Which binding signal did it give?
A: 0.807

Q: With TGGAGT as the sequence, how does the binding signal read?
A: 0.51

Q: Which binding signal does the source give for GGAAGG here?
A: 0.947

Q: GTGTCA was tested. Which binding signal did it give?
A: 0.869

Q: For GCAGAC, which binding signal is on record?
A: 0.753

Q: With CAAGCG as the sequence, how does the binding signal read?
A: 0.903

Q: Which binding signal does the source give for CGCATT here?
A: 0.768

Q: CGGTGG was tested. Which binding signal did it give?
A: 0.503

Q: Which binding signal does the source give for GTGAAC here?
A: 0.898

Q: GGAGTC was tested. Which binding signal did it give?
A: 0.209

Q: How did the binding signal turn out when GGGAGG was run?
A: 0.278

Q: Which binding signal does the source give for GGGTGG here?
A: 0.776

Q: GATAGG was tested. Which binding signal did it give?
A: 0.949

Q: GAACGC was tested. Which binding signal did it give?
A: 0.867

Q: With CCGAGT as the sequence, how does the binding signal read?
A: 0.958

Q: How did the binding signal turn out when AGTCGG was run?
A: 0.139

Q: How did the binding signal turn out when GTTAGA was run?
A: 0.756

Q: With CGGGTA as the sequence, how does the binding signal read?
A: 0.765

Q: How did the binding signal turn out when CGGCGC was run?
A: 0.675

Q: For GCCGGT, which binding signal is on record?
A: 0.753

Q: With TAGGAG as the sequence, how does the binding signal read?
A: 0.411

Q: For ACGGCG, which binding signal is on record?
A: 0.639

Q: For AGGGGT, which binding signal is on record?
A: 0.846

Q: Which binding signal does the source give for GGTGGC here?
A: 0.71

Q: With GTGCGA as the sequence, how does the binding signal read?
A: 0.779

Q: How did the binding signal turn out when TGAGTC was run?
A: 0.197

Q: For GACAAT, which binding signal is on record?
A: 0.917

Q: CCAGGG was tested. Which binding signal did it give?
A: 0.684

Q: Which binding signal does the source give for AGCCCG here?
A: 0.816

Q: With CAGGCG as the sequence, how does the binding signal read?
A: 0.254

Q: Which binding signal does the source give for GGGAAG here?
A: 0.906

Q: For ACCGTG, which binding signal is on record?
A: 0.225

Q: With TCCGTG as the sequence, how does the binding signal read?
A: 0.43

Q: How did the binding signal turn out when ACGAGG was run?
A: 0.692

Q: With CAGTGC as the sequence, how does the binding signal read?
A: 0.787

Q: How did the binding signal turn out when CGTAGA was run?
A: 0.799

Q: For GGTGAT, which binding signal is on record?
A: 0.759

Q: Which binding signal does the source give for GCATAA here?
A: 0.917

— publication PMC7862700
